# Test results as given in the supplement of paper PMC8728848.
# Some of the results follow.
# Columns and labels:
# Assay in all cases: glycan array binding signal (z-score within array); higher = stronger binding
# Conditions in all cases: glycan notation: IUPAC condensed, linker removed
# [1] = target: Gal(b1-3)[Fuc(a1-4)]GlcNAc(b1-6)GalNAc
# Outline: (§1)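 Glycan array data were curated from 3228 arrays in the Consortium for Functional Glycomics database and kept only where the protein sequence was available. Glycan names were converted to IUPAC-condensed notation, and columns mapping to the same glycan were averaged. The binding signal is a within-array Z-score, averaged across arrays of the same protein sequence at different concentrations or buffers and across linkers. Negative Z-scores can be read as non-binding.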
# [2] = target: Gal(b1-3)[GlcNAc(b1-6)]GalNAc
# Outline: as §1
# [3] = target: Gal(b1-3)[Neu5Ac(a2-6)]GalNAc
# Outline: as §1
# [4] = target: Gal(b1-3)[Neu5Ac(a2-6)]GlcNAc(b1-4)Gal(b1-4)Glc
# Outline: as §1
# [5] = target: Gal(b1-3)[Neu5Ac(b2-6)]GalNAc
# Outline: as §1
# [6] = target: Gal(b1-4)Gal
# Outline: as §1
# [7] = target: Gal(b1-4)GalNAc(a1-3)[Fuc(a1-2)]Gal(b1-4)GlcNAc
# Outline: as §1
# [8] = target: Gal(b1-4)GalNAc(b1-3)[Fuc(a1-2)]Gal(b1-4)GlcNAc
# Outline: as §1
# [9] = target: Gal(b1-4)Glc
# Outline: as §1
# [10] = target: Gal(b1-4)Glc6S
# Outline: as §1
# [11] = target: Gal(b1-4)GlcNAc
# Outline: as §1
# [12] = target: Gal(b1-4)GlcNAc(a1-6)Gal(b1-4)GlcNAc
# Outline: as §1
# [13] = target: Gal(b1-4)GlcNAc(b1-2)Man
# Outline: as §1
# [14] = target: Gal(b1-4)GlcNAc(b1-2)Man(a1-3)Man(b1-4)GlcNAc(b1-4)GlcNAc
# Outline: as §1
# [15] = target: Gal(b1-4)GlcNAc(b1-2)Man(a1-3)[Gal(b1-4)GlcNAc(b1-2)Man(a1-6)]Man(b1-4)GlcNAc(b1-4)GlcNAc
# Outline: as §1
# [16] = target: Gal(b1-4)GlcNAc(b1-2)Man(a1-3)[Gal(b1-4)GlcNAc(b1-2)Man(a1-6)]Man(b1-4)GlcNAc(b1-4)[Fuc(a1-6)]GlcNAc
# Outline: as §1
# [17] = target: Gal(b1-4)GlcNAc(b1-2)Man(a1-3)[Gal(b1-4)GlcNAc(b1-2)Man(a1-6)][Gal(b1-4)GlcNAc(b1-4)]Man(b1-4)GlcNAc(b1-4)[Fuc(a1-6)]GlcNAc
# Outline: as §1
# [18] = target: Gal(b1-4)GlcNAc(b1-2)Man(a1-3)[Gal(b1-4)GlcNAc(b1-2)Man(a1-6)][GlcNAc(b1-4)]Man(b1-4)GlcNAc(b1-4)[Fuc(a1-6)]GlcNAc
# Outline: as §1
# [19] = target: Gal(b1-4)GlcNAc(b1-2)Man(a1-3)[GlcNAc(b1-2)Man(a1-6)]Man(b1-4)GlcNAc(b1-4)GlcNAc
# Outline: as §1
# [20] = target: Gal(b1-4)GlcNAc(b1-2)Man(a1-3)[GlcNAc(b1-4)][Gal(b1-4)GlcNAc(b1-2)Man(a1-6)]Man(b1-4)GlcNAc(b1-4)GlcNAc
# Outline: as §1
# [21] = target: Gal(b1-4)GlcNAc(b1-2)Man(a1-3)[Man(a1-6)]Man(b1-4)GlcNAc(b1-4)GlcNAc
# Outline: as §1
# [22] = target: Gal(b1-4)GlcNAc(b1-2)Man(a1-6)Man(b1-4)GlcNAc(b1-4)GlcNAc
# Outline: as §1
# [23] = target: Gal(b1-4)GlcNAc(b1-2)Man(a1-6)[GlcNAc(b1-2)Man(a1-3)]Man(b1-4)GlcNAc(b1-4)GlcNAc
# Outline: as §1
# [24] = target: Gal(b1-4)GlcNAc(b1-2)Man(a1-6)[Man(a1-3)]Man(b1-4)GlcNAc(b1-4)GlcNAc
# Outline: as §1
# [25] = target: Gal(b1-4)GlcNAc(b1-2)[Gal(b1-4)GlcNAc(b1-4)]Man(a1-3)[Gal(b1-4)GlcNAc(b1-2)Man(a1-6)]Man(b1-4)GlcNAc(b1-4)GlcNAc
# Outline: as §1
# [26] = target: Gal(b1-4)GlcNAc(b1-2)[Gal(b1-4)GlcNAc(b1-4)]Man(a1-3)[Gal(b1-4)GlcNAc(b1-2)[Gal(b1-4)GlcNAc(b1-6)]Man(a1-6)]Man(b1-4)GlcNAc(b1-4)GlcNAc
# Outline: as §1
# [27] = target: Gal(b1-4)GlcNAc(b1-2)[Gal(b1-4)GlcNAc(b1-4)]Man(a1-3)[GlcNAc(b1-4)][Gal(b1-4)GlcNAc(b1-2)Man(a1-6)]Man(b1-4)GlcNAc(b1-4)GlcNAc
# Outline: as §1
# [28] = target: Gal(b1-4)GlcNAc(b1-2)[Gal(b1-4)GlcNAc(b1-4)]Man(a1-3)[GlcNAc(b1-4)][Gal(b1-4)GlcNAc(b1-2)[Gal(b1-4)GlcNAc(b1-6)]Man(a1-6)]Man(b1-4)GlcNAc(b1-4)GlcNAc
# Outline: as §1
# [29] = target: Gal(b1-4)GlcNAc(b1-2)[Gal(b1-4)GlcNAc(b1-6)]Man(a1-6)[Gal(b1-4)GlcNAc(b1-2)Man(a1-3)]Man(b1-4)GlcNAc(b1-4)GlcNAc
# Outline: as §1
# [30] = target: Gal(b1-4)GlcNAc(b1-2)[Gal(b1-4)GlcNAc(b1-6)]Man(a1-6)[Gal(b1-4)GlcNAc(b1-2)Man(a1-3)]Man(b1-4)GlcNAc(b1-4)[Fuc(a1-6)]GlcNAc
# Outline: as §1
# [31] = target: Gal(b1-4)GlcNAc(b1-2)[Gal(b1-4)GlcNAc(b1-6)]Man(a1-6)[GlcNAc(b1-4)][Gal(b1-4)GlcNAc(b1-2)Man(a1-3)]Man(b1-4)GlcNAc(b1-4)GlcNAc
# Outline: as §1
# [32] = target: Gal(b1-4)GlcNAc(b1-2)[Gal(b1-4)GlcNAc(b1-6)]Man(a1-6)[GlcNAc(b1-4)][Gal(b1-4)GlcNAc(b1-2)[Gal(b1-4)GlcNAc(b1-4)]Man(a1-3)]Man(b1-4)GlcNAc(b1-4)[Fuc(a1-6)]GlcNAc
# Outline: as §1
# [33] = target: Gal(b1-4)GlcNAc(b1-3)Gal(b1-3)GalNAc
# Outline: as §1
# [34] = target: Gal(b1-4)GlcNAc(b1-3)Gal(b1-3)GlcNAc
# Outline: as §1
# [35] = target: Gal(b1-4)GlcNAc(b1-3)Gal(b1-4)Glc
# Outline: as §1
# [36] = target: Gal(b1-4)GlcNAc(b1-3)Gal(b1-4)GlcNAc
# Outline: as §1
# [37] = target: Gal(b1-4)GlcNAc(b1-3)Gal(b1-4)GlcNAc(b1-2)Man(a1-3)[Gal(b1-4)GlcNAc(b1-3)Gal(b1-4)GlcNAc(b1-2)Man(a1-6)]Man(b1-4)GlcNAc(b1-4)GlcNAc
# Outline: as §1
# [38] = target: Gal(b1-4)GlcNAc(b1-3)Gal(b1-4)GlcNAc(b1-2)Man(a1-3)[Gal(b1-4)GlcNAc(b1-3)Gal(b1-4)GlcNAc(b1-2)Man(a1-6)]Man(b1-4)GlcNAc(b1-4)[Fuc(a1-6)]GlcNAc
# Outline: as §1
binder,measurement,setting,value
PX9961W-pdi-543-27-543 (Parabacteroides distasonis) (protein) EGNATTTSYFLNDQQAIDAIDGLYERFHQEGCYGRELFWEQGAACDIVWGRTRGYNSLATLAYTGDESPLRDVFSRMYSTMSRANWIIQELVKKEKGTTLTAVEKRSLGEAYFSRGWAHYLIAYRYGTDKQGVPFVRYEDFPDDYDNSIPPQQATVMDNYKLIIEDMDKAIAYLPIFESYDADNRGRAHQAAAVAFKAKTYAYWATWDATQWNNVIEMVNQLENNYNRDLAPTFAELFSSDLKDYWNAEYLWTIPSIGGALPGGTEFPGIILENKGWGKYNGWGQMKPSYDIYEEMAKDGKGNDRLVRSILEYNQEFPFFGETRKFWSTSDLEAGFMINKYMDAFKYSDPVGEGAVSANGDWPTVRVNFPIIRFAEMLLFRAEAYLMTGQADKATADINRIRLRSNLTPLTGTATMKDLYHERRCELAFEFTDHLFDLKRWNRSSNADIKTLADKELNAHPRIRRYEDRANPESAFTIIGYEDYTNKNAYQAHMMVFPYPSEEITKSNGQLKQNEGY,glycan array binding signal (z-score),[1],0.297
same,glycan array binding signal (z-score),[2],0.083
same,glycan array binding signal (z-score),[3],-0.081
same,glycan array binding signal (z-score),[4],0.508
same,glycan array binding signal (z-score),[5],-0.599
same,glycan array binding signal (z-score),[6],-1.05
same,glycan array binding signal (z-score),[7],-0.928
same,glycan array binding signal (z-score),[8],-0.73
same,glycan array binding signal (z-score),[9],-0.032
same,glycan array binding signal (z-score),[10],-1.04
same,glycan array binding signal (z-score),[11],0.002
same,glycan array binding signal (z-score),[12],-1.03
same,glycan array binding signal (z-score),[13],0.965
same,glycan array binding signal (z-score),[14],-0.759
same,glycan array binding signal (z-score),[15],0.803
same,glycan array binding signal (z-score),[16],-0.2
same,glycan array binding signal (z-score),[17],-0.642
same,glycan array binding signal (z-score),[18],-0.894
same,glycan array binding signal (z-score),[19],0.169
same,glycan array binding signal (z-score),[20],-0.751
same,glycan array binding signal (z-score),[21],-0.027
same,glycan array binding signal (z-score),[22],1.08
same,glycan array binding signal (z-score),[23],0.677
same,glycan array binding signal (z-score),[24],0.053
same,glycan array binding signal (z-score),[25],1.85
same,glycan array binding signal (z-score),[26],-0.742
same,glycan array binding signal (z-score),[27],-0.379
same,glycan array binding signal (z-score),[28],0.011
same,glycan array binding signal (z-score),[29],-1.14
same,glycan array binding signal (z-score),[30],0.703
same,glycan array binding signal (z-score),[31],-0.468
same,glycan array binding signal (z-score),[32],-0.459
same,glycan array binding signal (z-score),[33],-0.72
same,glycan array binding signal (z-score),[34],-0.076
same,glycan array binding signal (z-score),[35],0.173
same,glycan array binding signal (z-score),[36],-0.301
same,glycan array binding signal (z-score),[37],1.2
same,glycan array binding signal (z-score),[38],0.618

# For convenience, some entries already given.
binder,measurement,setting,value
PX9961W-pdi-543-27-543 (Parabacteroides distasonis) (protein) EGNATTTSYFLNDQQAIDAIDGLYERFHQEGCYGRELFWEQGAACDIVWGRTRGYNSLATLAYTGDESPLRDVFSRMYSTMSRANWIIQELVKKEKGTTLTAVEKRSLGEAYFSRGWAHYLIAYRYGTDKQGVPFVRYEDFPDDYDNSIPPQQATVMDNYKLIIEDMDKAIAYLPIFESYDADNRGRAHQAAAVAFKAKTYAYWATWDATQWNNVIEMVNQLENNYNRDLAPTFAELFSSDLKDYWNAEYLWTIPSIGGALPGGTEFPGIILENKGWGKYNGWGQMKPSYDIYEEMAKDGKGNDRLVRSILEYNQEFPFFGETRKFWSTSDLEAGFMINKYMDAFKYSDPVGEGAVSANGDWPTVRVNFPIIRFAEMLLFRAEAYLMTGQADKATADINRIRLRSNLTPLTGTATMKDLYHERRCELAFEFTDHLFDLKRWNRSSNADIKTLADKELNAHPRIRRYEDRANPESAFTIIGYEDYTNKNAYQAHMMVFPYPSEEITKSNGQLKQNEGY,glycan array binding signal (z-score),[16],-0.2
same,glycan array binding signal (z-score),[17],-0.642
same,glycan array binding signal (z-score),[18],-0.894
